Eight molecules from PubChem BioAssay AID330 (DTP/NCI, 2004) can be followed below.

The list is a part of this screen's results and no random one: it covers a few groups of compounds. Not every dose and run of a compound is shown. T/C gives the treated animals as a percentage of the vehicle group. Where survival is the endpoint, this PubChem deposit counts one and a half times the control or more as active, and values a quarter to a half above the control carry no call in these data; other NCI protocols may use other cut-offs. Schedule codes are those of the source, read here as Q, the interval in days (D) or hours (H), X, the number of doses. Some T/C values are marked as having no survivor count here; that says nothing about deaths at the dose. Some doses were run more than once; their values stand side by side, smallest first.

This assay relates to P388 leukemia ip, CD2F1 mice, survival T/C. Put plainly: NCI In Vivo Anticancer Drug Screen. Data for tumor model P388 Leukemia (intraperitoneal) in CD2F1 (CDF1) mice. The conditions noted are these: T/C endpoint: median survival time, higher T/C = longer survival.
Where [1] appears, read: dose: 8.0 mg/kg/injection, schedule: Q01DX009 (ip), vehicle: saline.
[2] abbreviates: dose: 25.0 mg/kg/injection, schedule: Q04DX003 (ip), vehicle: saline.
[3] abbreviates: dose: 3.13 mg/kg/injection, schedule: Q01DX009 (ip), vehicle: saline.
[4] abbreviates: dose: 6.25 mg/kg/injection, schedule: Q01DX009 (ip), vehicle: saline.
The mark [5] stands for this setting: dose: 12.5 mg/kg/injection, schedule: Q01DX009 (ip), vehicle: saline.
Where [6] appears, read: dose: 50.0 mg/kg/injection, schedule: Q01DX009 (ip), vehicle: saline.
[7] abbreviates: dose: 25.0 mg/kg/injection, schedule: Q01DX009 (ip), vehicle: saline.

As to `CCN1CCCC(OC(=O)C(O)(c2ccccc2)C2CCCC2)C1` (stereo not drawn), the T/C by setting is: (dose: 50.0 mg/kg/injection, schedule: Q01DX009 (ip), vehicle: Klucel (hydroxypropylcellulose) (HPC)) 106 % of control [survivor count not shown]; (dose: 100.0 mg/kg/injection, schedule: Q01DX009 (ip), vehicle: Klucel (hydroxypropylcellulose) (HPC)) 109 % of control [survivor count not shown]; (dose: 200.0 mg/kg/injection, schedule: Q01DX009 (ip), vehicle: Klucel (hydroxypropylcellulose) (HPC)) 111 % of control [survivor count not shown].

Consider `OC1(C#CCN(CCCl)CCCl)CCCCC1`, for which the T/C runs as follows: (dose: 6.25 mg/kg/injection, schedule: Q01DX009 (ip), vehicle: saline with Tween-80) 159 % of control [survivor count not shown]; under setting [1], 118 % of control [survivor count not shown]; (dose: 12.0 mg/kg/injection, schedule: Q01DX009 (ip), vehicle: saline) 118 % of control [survivor count not shown]; (dose: 12.5 mg/kg/injection, schedule: Q01DX009 (ip), vehicle: saline with Tween-80) 181 % of control [survivor count not shown]; (dose: 18.0 mg/kg/injection, schedule: Q01DX009 (ip), vehicle: saline) 90 % of control [survivor count not shown]; (dose: 25.0 mg/kg/injection, schedule: Q01DX009 (ip), vehicle: saline with Tween-80) 86 % of control [survivor count not shown]. Further, under setting [2], the T/C was 121 % of control [survivor count not shown].

Take `Cc1cc2nc(CN(CCCl)CCCl)[nH]c2cc1C`: the T/C is 113 % of control [survivor count not shown] (dose: 0.63 mg/kg/injection, schedule: Q04DX003 (ip), vehicle: saline); 113 % of control [survivor count not shown] (dose: 1.25 mg/kg/injection, schedule: Q04DX003 (ip), vehicle: saline); 127 % of control [survivor count not shown] (dose: 2.5 mg/kg/injection, schedule: Q04DX003 (ip), vehicle: saline); 181 % of control [survivor count not shown] under setting [3]; 142 % of control [survivor count not shown] (dose: 5.0 mg/kg/injection, schedule: Q04DX003 (ip), vehicle: saline with Tween-80); 204 % of control [survivor count not shown] under setting [4]. In addition, the T/C is 166 % of control [survivor count not shown] (dose: 10.0 mg/kg/injection, schedule: Q04DX003 (ip), vehicle: saline with Tween-80); 100 % of control [survivor count not shown] under setting [5]; 181 % of control [survivor count not shown] (dose: 12.5 mg/kg/injection, schedule: Q04DX003 (ip), vehicle: saline with Tween-80); 236 % of control [survivor count not shown] (dose: 16.5 mg/kg/injection, schedule: Q04DX003 (ip), vehicle: saline with Tween-80); 285 % of control [survivor count not shown] (dose: 20.0 mg/kg/injection, schedule: Q04DX003 (ip), vehicle: saline with Tween-80); 159 [survivor count not shown] and 245 % of control [survivor count not shown] (dose: 25.0 mg/kg/injection, schedule: Q04DX003 (ip), vehicle: saline with Tween-80). In addition, the T/C (dose: 37.5 mg/kg/injection, schedule: Q04DX003 (ip), vehicle: saline with Tween-80) is 90 % of control [survivor count not shown].

Consider `ClCCCC(Cl)CNCCCl` (stereo not drawn), for which the T/C (dose: 1.0 mg/kg/injection, schedule: Q01DX009 (ip), vehicle: saline) was 95 % of control [survivor count not shown]; the T/C (dose: 2.0 mg/kg/injection, schedule: Q01DX009 (ip), vehicle: saline) is 100 % of control [survivor count not shown]; the T/C (dose: 3.3 mg/kg/injection, schedule: Q01DX009 (ip), vehicle: saline) was 100 % of control [survivor count not shown]; the T/C (dose: 4.0 mg/kg/injection, schedule: Q01DX009 (ip), vehicle: saline) was 100 % of control [survivor count not shown]; the T/C (dose: 5.0 mg/kg/injection, schedule: Q01DX009 (ip), vehicle: saline) is 109 % of control [survivor count not shown]; the T/C (dose: 7.5 mg/kg/injection, schedule: Q01DX009 (ip), vehicle: saline) is 86 % of control [survivor count not shown]. Moreover, the T/C under setting [1] was 115 % of control [survivor count not shown]; the T/C (dose: 12.5 mg/kg/injection, schedule: Q01DX009 (ip), vehicle: saline sonified) was 136 % of control [survivor count not shown]; the T/C (dose: 16.5 mg/kg/injection, schedule: Q04DX003 (ip), vehicle: saline) is 117 % of control [survivor count not shown]; the T/C (dose: 25.0 mg/kg/injection, schedule: Q01DX009 (ip), vehicle: saline sonified) is 181 % of control [survivor count not shown]; the T/C (dose: 25.0 mg/kg/injection, schedule: Q04DX003 (ip), vehicle: saline sonified) was 131 % of control [survivor count not shown]; the T/C under setting [2] was 139 % of control [survivor count not shown]. In addition, the T/C is 173 % of control [survivor count not shown] (dose: 37.5 mg/kg/injection, schedule: Q04DX003 (ip), vehicle: saline) and 118 % of control [survivor count not shown] (dose: 50.0 mg/kg/injection, schedule: Q04DX003 (ip), vehicle: saline sonified).

With `C=C(C)C#CC(O)(C(=O)OC1CCN(C)CC1)c1ccccc1` (stereo not drawn), the T/C is 105 % of control [survivor count not shown] under setting [6]; 96 % of control [survivor count not shown] (dose: 100.0 mg/kg/injection, schedule: Q01DX009 (ip), vehicle: saline); 98 % of control [survivor count not shown] (dose: 200.0 mg/kg/injection, schedule: Q01DX009 (ip), vehicle: saline).

As to `ClCCNCCCNCCCl`, the T/C reads like this: under setting [4], 109 [survivor count not shown] and 118 % of control [survivor count not shown]; under setting [5], 118 [survivor count not shown] and 145 % of control [survivor count not shown]; (dose: 16.5 mg/kg/injection, schedule: Q01DX009 (ip), vehicle: saline) 145 % of control [survivor count not shown]; under setting [7], 163 [survivor count not shown], 181 [survivor count not shown], 218 % of control [survivor count not shown]; (dose: 37.5 mg/kg/injection, schedule: Q01DX009 (ip), vehicle: saline) 195 % of control [survivor count not shown]; under setting [6], 122 % of control [survivor count not shown]. For the same molecule, the T/C is 104 % of control [survivor count not shown] (dose: 100.0 mg/kg/injection, schedule: Q04DX003 (ip), vehicle: saline with Tween-80) and 86 % of control [survivor count not shown] (dose: 200.0 mg/kg/injection, schedule: Q04DX003 (ip), vehicle: saline with Tween-80).

Regarding `Cc1ccc(C)c(CN(CCCl)CCCl)c1`, the T/C is 107 % of control [survivor count not shown] (dose: 0.4 mg/kg/injection, schedule: Q01DX009 (ip), vehicle: saline); 115 % of control [survivor count not shown] (dose: 0.8 mg/kg/injection, schedule: Q01DX009 (ip), vehicle: saline); 119 % of control [survivor count not shown] (dose: 1.5 mg/kg/injection, schedule: Q01DX009 (ip), vehicle: saline); 132 % of control [survivor count not shown] (dose: 3.0 mg/kg/injection, schedule: Q01DX009 (ip), vehicle: saline); 142 % of control [survivor count not shown] under setting [3]; 145 [survivor count not shown] and 151 % of control [survivor count not shown] under setting [4]. For the same molecule, the T/C is, setting by setting: under setting [5], 166 [survivor count not shown] and 172 % of control [survivor count not shown]; under setting [7], 181 [survivor count not shown] and 196 % of control [survivor count not shown].

On to `CC(=O)CI`, for which the T/C is 98 % of control (dose: 60.0 mg/kg/injection, schedule: Q01DX005 (ip), vehicle: saline with Tween-80) and 98 % of control (dose: 120.0 mg/kg/injection, schedule: Q01DX005 (ip), vehicle: saline with Tween-80).
